No constants are given. Whether binding was seen depends on the method and setting.

Assay [1] concerns the target T1, human DRAXIN, AVEXIS prey or bait protein (human), Q8NBI3.
T1 chain: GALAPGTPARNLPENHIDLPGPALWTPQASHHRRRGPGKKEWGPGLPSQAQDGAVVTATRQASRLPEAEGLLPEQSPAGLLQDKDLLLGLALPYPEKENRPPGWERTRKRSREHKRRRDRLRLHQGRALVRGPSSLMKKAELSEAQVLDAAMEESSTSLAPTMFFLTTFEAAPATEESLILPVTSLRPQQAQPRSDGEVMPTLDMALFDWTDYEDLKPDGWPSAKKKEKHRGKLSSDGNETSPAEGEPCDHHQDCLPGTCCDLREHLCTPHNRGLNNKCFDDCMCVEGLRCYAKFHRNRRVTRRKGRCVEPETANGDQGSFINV
In words: AVEXIS, pentameric prey human DRAXIN on bait hDRAXIN. As to conditions: remark: other sources report otherwise.

For assay [2], the target named is T1, human DRAXIN, AVEXIS prey or bait …. In words: AVEXIS, prey DRAXIN on bait DRAXIN. As to conditions: remark: other sources report otherwise.

B1: human DRAXIN, AVEXIS prey or bait protein, Q8NBI3 26-349 (ligand)
chain: GALAPGTPARNLPENHIDLPGPALWTPQASHHRRRGPGKKEWGPGLPSQAQDGAVVTATRQASRLPEAEGLLPEQSPAGLLQDKDLLLGLALPYPEKENRPPGWERTRKRSREHKRRRDRLRLHQGRALVRGPSSLMKKAELSEAQVLDAAMEESSTSLAPTMFFLTTFEAAPATEESLILPVTSLRPQQAQPRSDGEVMPTLDMALFDWTDYEDLKPDGWPSAKKKEKHRGKLSSDGNETSPAEGEPCDHHQDCLPGTCCDLREHLCTPHNRGLNNKCFDDCMCVEGLRCYAKFHRNRRVTRRKGRCVEPETANGDQGSFINV
In the case of B1, the binding entry in assay [1] and in assay [2] was “no binding” in each case.

For the origin of these results see patent US20160347802A1.
